Results as given in paper PMC12561415, “ACSS2/AATF Drives Soluble FasL‐Mediated CD8^+ T Cell Apoptosis in Pancreatic Neuroendocrine Tumors” (Advanced Science, 2025).
These are yes or no findings as the source states them, for the method shown. Binding seen in cells or lysates may run through a third protein. Some entries that bind do so weakly or less than the wild type. Tags and fused reporters may be left off the sequences shown.

Chains of the proteins cited; added tags and fusions are not shown.
UniProt Q9NR19: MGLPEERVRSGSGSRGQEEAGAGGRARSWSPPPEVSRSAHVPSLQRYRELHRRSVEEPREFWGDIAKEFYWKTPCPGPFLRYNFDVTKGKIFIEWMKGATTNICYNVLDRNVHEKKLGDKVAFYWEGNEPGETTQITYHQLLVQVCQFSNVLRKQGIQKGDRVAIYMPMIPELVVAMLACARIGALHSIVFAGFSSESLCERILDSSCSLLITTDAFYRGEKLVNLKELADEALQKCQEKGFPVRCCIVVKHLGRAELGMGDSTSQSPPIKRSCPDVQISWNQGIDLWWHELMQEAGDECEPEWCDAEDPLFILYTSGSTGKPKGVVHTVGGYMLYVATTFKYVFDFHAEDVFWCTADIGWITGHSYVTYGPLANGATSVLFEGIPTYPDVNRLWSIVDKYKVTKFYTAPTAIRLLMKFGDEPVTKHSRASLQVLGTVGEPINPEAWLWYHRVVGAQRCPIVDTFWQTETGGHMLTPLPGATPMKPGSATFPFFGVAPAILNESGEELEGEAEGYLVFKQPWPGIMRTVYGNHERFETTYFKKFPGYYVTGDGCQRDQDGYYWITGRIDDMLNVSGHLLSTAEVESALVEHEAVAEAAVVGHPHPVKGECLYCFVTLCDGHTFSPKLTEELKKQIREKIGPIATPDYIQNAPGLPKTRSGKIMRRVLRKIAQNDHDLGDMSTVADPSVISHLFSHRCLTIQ

Biological target: Flag-ACSS2 (acetyl-CoA synthetase 2) (human) (UniProt Q9NR19)
Experiment: co-IP; Flag-ACSS2 stable BON-1 cells lysed; immunoprecipitated with anti-Flag Ab or rabbit IgG control Ab; immunoblot with antibodies against AATF

B1: Recombinant human AATF (natural protein, UniProt Q9NY61 1-560, looked up)
chain: MAGPQPLALQLEQLLNPRPSEADPEADPEEATAARVIDRFDEGEDGEGDFLVVGSIRKLASASLLDTDKRYCGKTTSRKAWNEDHWEQTLPGSSDEEISDEEGSGDEDSEGLGLEEYDEDDLGAAEEQECGDHRESKKSRSHSAKTPGFSVQSISDFEKFTKGMDDLGSSEEEEDEESGMEEGDDAEDSQGESEEDRAGDRNSEDDGVVMTFSSVKVSEEVEKGRAVKNQIALWDQLLEGRIKLQKALLTTNQLPQPDVFPLFKDKGGPEFSSALKNSHKALKALLRSLVGLQEELLFQYPDTRYLVDGTKPNAGSEEISSEDDELVEEKKQQRRRVPAKRKLEMEDYPSFMAKRFADFTVYRNRTLQKWHDKTKLASGKLGKGFGAFERSILTQIDHILMDKERLLRRTQTKRSVYRVLGKPEPAAQPVPESLPGEPEILPQAPANAHLKDLDEEIFDDDDFYHQLLRELIERKTSSLDPNDQVAMGRQWLAIQKLRSKIHKKVDRKASKGRKLRFHVLSKLLSFMAPIDHTTMNDDARTELYRSLFGQLHPPDEGHGD
notes: Recombinant human AATF, the analyte in SPR; also called Che-1
  binding: binds
